At least one structure is not confirmed: it was looked up by name or label, or the drawing left a doubt.
What was measured:
[1] = system: T98G and SF767 glioma cells; assay: Apoptotic assay (nuclear morphology of DAPI stained cells); assay type: cell-based, Human; conditions: TMZ 200 μM; 24 h
Experimental: (§1) Human astrocytoma cell lines T98G, U87, U118, SNB19 (American Type Culture Collection) and SF767 (University of California at San Francisco) were maintained in Dulbecco's modified Eagle's medium (DMEM)+10% heat inactivated fetal bovine serum (FBS) in a 37° C., 5% CO2 atmosphere. In all assays treated with TWEAK, cells were cultured in reduced serum (0.5% FBS) for 16 h prior to stimulation with recombinant TWEAK at 100 ng/ml in DMEM+0.1% BSA for the indicated times.
Apoptotic cells were evaluated by nuclear morphology of DAPI stained cells as described previously (See Reference 11). Briefly, cells with condensed, fragmented chromatin were manually scored as apoptotic cells. At least five fields (total of 1000 cells) were evaluated, and data reported as apoptotic cells/total cells×100. […] At least 1000 cells per treatment were evaluated for condensed chromatin and activated caspase 3 (See Reference 11).
TWEAK stimulation of glioma cell survival depends on Akt2 function. […] After 72 hours, protein lysates were collected and analyzed by Western blotting for Akt1, Akt2 and α-tubulin. […] Cells with condensed, fragmented chromatin were manually scored as apoptotic cells. At least 10 fields (total of 1000 cells) were evaluated and data reported as apoptotic cells/total cells×100. […]

[2] = system: Akt-Ser473 phosphorylation; assay: Western blot of Akt-Ser473 phosphorylation in TWEAK-treated glioma cells; assay type: cell-based, Human; conditions: 10 μM, 10 min prior to TWEAK addition; T98G cells
Experimental: as §1
Immunoblotting and protein determination experiments were performed as described previously (See Reference 11). […] Samples were then resuspended in 2×SDS sample buffer and boiled in the presence of 2-mercaptoethanol (Sigma), separated by SDS-PAGE, transferred to nitrocellulose for 1 h at 4° C., and proteins were detected as described previously (See Reference 27). […]
Referring now to FIG. 1, T98G and SF767 glioma cells were treated with TWEAK and then harvested at the indicated times. Protein lysates were analyzed by Western blotting using antibodies to Akt Ser-473, total Akt, and α-tubulin. […] Total cell lysates were collected after 10 min of TWEAK treatment and analyzed for phosphorylated Akt-473, total Akt, and α-tubulin. […] Cells were treated with TWEAK for 10 minutes and protein lysates were analyzed for phosphorylated Akt-473, total Akt, Rac1 and α-tubulin. […]

Compound	apoptosis of glioma cells treated with temozolomide [1]	TWEAK-induced Akt-Ser473 phosphorylation in the presence of PI3K inhibitor [2]
Cn1nnc2c(C(N)=O)ncn2c1=O [TMZ, temozolomide, reference compound]	Cellular apoptosis was detected	–
O=c1cc(N2CCOCC2)oc2c(-c3ccccc3)cccc12 [LY294002, reference compound]	–	blocked

— US9255270B2, “Methods used in sensitizing invasive glioblastoma to therapeutic treatment” (Translational Genomics Research Institute, priority 2009, dated 2016)
